Results: patent publication US20230165970A1 (priority 2017, published 2023)
Some peptides are written in HELM: one residue between dots, names in brackets for other building blocks, links after the first $.

Assay: general procedure: solution-phase peptide synthesis; HATU/DIEA (EDC/HOBt for Int-5b)

| Substance | step yield (coupling step) [%] | step yield (late stage modification step) [%] | further results |
| --- | --- | --- | --- |
| Boc-PMBH-[(γ-Boc)-aza-Dab]-Thr-[(γ-Boc)-Dab]-[((S)-hexyl)-Gly]-[Propargyl-PEG4-Acyl] |  |  | conjugation yield (conjugation step): 86% |
| tetra Boc PMBH-Gly-Thr-Dab | 76.6 |  |  |
| Tri-Boc-PMBH-[(γ-Boc)-Aza-Dab] |  |  | step yield (late stage modification step, over three steps): 44% yield over three steps |
| Tri-Boc-PMBH-[(γ-Boc)-aza-Dab]-Thr-[(γ-Boc)-Dab]-[Z-((S)-Hexyl)-Gly] | 61 |  |  |
| PEPTIDE1{[PrgPEG4].[Dab].[AHNA].[aza-Gly].[Dab].[Dab].[D-Cha].L.[Dab].[Dab].T}$PEPTIDE1,PEPTIDE1,5:R3-11:R2$$$V2.0 |  | 53.2 |  |
| Tri-Boc Polymyxin B Cycloheptapeptide |  | 65.0 |  |
| Penta-Boc-PMB-Decapeptide |  |  | step yield (coupling step, two steps): 94% |
| PMBH-AzaGly-NH2 |  | 98.4 |  |
| Tri-Boc-PMBH-[(γ-Boc)-Aza-Dab]-[Z-Thr] | 44 |  |  |
